The values that follow come from article PMC5286509.

This experiment addresses T1, myc-tagged TAF7L (TATA-binding protein (TBP)-associated factor 7-like) (UniProt Q5H9L4).
T1 sequence: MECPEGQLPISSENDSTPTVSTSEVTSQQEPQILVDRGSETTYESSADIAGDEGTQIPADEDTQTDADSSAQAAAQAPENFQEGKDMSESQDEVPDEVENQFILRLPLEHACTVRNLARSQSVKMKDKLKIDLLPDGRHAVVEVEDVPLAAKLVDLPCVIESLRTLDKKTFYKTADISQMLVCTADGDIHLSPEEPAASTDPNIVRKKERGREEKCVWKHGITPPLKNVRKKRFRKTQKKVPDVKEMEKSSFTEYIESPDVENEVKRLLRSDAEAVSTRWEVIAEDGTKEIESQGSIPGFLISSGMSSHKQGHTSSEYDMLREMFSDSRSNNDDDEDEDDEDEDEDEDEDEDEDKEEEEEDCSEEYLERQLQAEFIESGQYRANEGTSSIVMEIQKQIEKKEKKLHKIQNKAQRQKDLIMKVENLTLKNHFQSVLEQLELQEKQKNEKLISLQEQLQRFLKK
The experiment is described as follows: co-IP; HEK293T cells co-transfected with GFP-CTCF, HA-BORIS and one of myc-TAF7L, myc-BRD4 or myc-RFX2; 1.5 mg total protein with anti-Myc, anti-HA or anti-GFP antibody overnight at 4 °C, Protein A/G Dynabeads, western blot.

Results are given in words; binding and its absence hold for the method and conditions named. In cells and extracts the contact can be indirect. Where a sequence is shown, tags or fusion partners need not be part of it.

B1: GFP-tagged CTCF (CCCTC-binding factor) (protein, UniProt P49711 1-727)
chain: MEGDAVEAIVEESETFIKGKERKTYQRRREGGQEEDACHLPQNQTDGGEVVQDVNSSVQMVMMEQLDPTLLQMKTEVMEGTVAPEAEAAVDDTQIITLQVVNMEEQPINIGELQLVQVPVPVTVPVATTSVEELQGAYENEVSKEGLAESEPMICHTLPLPEGFQVVKVGANGEVETLEQGELPPQEDPSWQKDPDYQPPAKKTKKTKKSKLRYTEEGKDVDVSVYDFEEEQQEGLLSEVNAEKVVGNMKPPKPTKIKKKGVKKTFQCELCSYTCPRRSNLDRHMKSHTDERPHKCHLCGRAFRTVTLLRNHLNTHTGTRPHKCPDCDMAFVTSGELVRHRRYKHTHEKPFKCSMCDYASVEVSKLKRHIRSHTGERPFQCSLCSYASRDTYKLKRHMRTHSGEKPYECYICHARFTQSGTMKMHILQKHTENVAKFHCPHCDTVIARKSDLGVHLRKQHSYIEQGKKCRYCDAVFHERYALIQHQKSHKNEKRFKCDQCDYACRQERHMIMHKRTHTGEKPYACSHCDKTFRQKQLLDMHFKRYHDPNFVPAAFVCSKCGKTFTRRNTMARHADNCAGPDGVEGENGGETKKSKRGRKRKMRSKKEDSSDSENAEPDLDDNEDEEEPAVEIEPEPEPQPVTPAPPPAKKRRGRPPGRTNQPKQNQPTAIIQVEDQNTGAIENIIVEVKKEPDAEPAEGEEEEAQPAATDAPNGDLTPEMILSMMDR
Take B1: the binding result is “no binding”.
